# Data published in the supplement of paper PMC8728848.
# The list shows a part of the results.
# Assays:
# Test in all cases: glycan array binding signal (z-score within array); higher = stronger binding
# Conditions in all cases: glycan notation: IUPAC condensed, linker removed
# [1] = target: GlcNAc(b1-2)[GlcNAc(b1-6)]Man(a1-6)[GlcNAc(b1-2)Man(a1-3)]Man(b1-4)GlcNAc(b1-4)[Fuc(a1-6)]GlcNAc
# Summary of the method: (§1)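 From the Consortium for Functional Glycomics database, 3228 arrays were curated, keeping only those whose protein sequence was available. Binding is given as a within-array Z-score averaged across arrays sharing a protein sequence and across linkers. Negative Z-scores can be read as non-binding.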
# [2] = target: GlcNAc(b1-2)[GlcNAc(b1-6)]Man(a1-6)[GlcNAc(b1-2)Man(a1-3)][GlcNAc(b1-4)]Man(b1-4)GlcNAc(b1-4)GlcNAc
# Summary of the method: as §1
# [3] = target: GlcNAc(b1-2)[GlcNAc(b1-6)]Man(a1-6)[GlcNAc(b1-4)][GlcNAc(b1-2)Man(a1-3)]Man(b1-4)GlcNAc(b1-4)GlcNAc
# Summary of the method: as §1
# GlcNAc(b1-3)Fuc = target: GlcNAc(b1-3)Fuc
# Summary of the method: as §1
# GlcNAc(b1-3)Gal = target: GlcNAc(b1-3)Gal
# Summary of the method: as §1
# [4] = target: GlcNAc(b1-3)Gal(b1-3)GalNAc
# Summary of the method: as §1
# GlcNAc(b1-3)Gal(b1-4)Glc = target: GlcNAc(b1-3)Gal(b1-4)Glc
# Summary of the method: as §1
# [5] = target: GlcNAc(b1-3)Gal(b1-4)GlcNAc
# Summary of the method: as §1
# [6] = target: GlcNAc(b1-3)Gal(b1-4)GlcNAc(b1-2)Man(a1-3)[GlcNAc(b1-3)Gal(b1-4)GlcNAc(b1-2)Man(a1-6)]Man(b1-4)GlcNAc(b1-4)GlcNAc
# Summary of the method: as §1
# [7] = target: GlcNAc(b1-3)Gal(b1-4)GlcNAc(b1-2)Man(a1-3)[GlcNAc(b1-3)Gal(b1-4)GlcNAc(b1-2)Man(a1-6)]Man(b1-4)GlcNAc(b1-4)[Fuc(a1-6)]GlcNAc
# Summary of the method: as §1
# [8] = target: GlcNAc(b1-3)Gal(b1-4)GlcNAc(b1-2)[GlcNAc(b1-3)Gal(b1-4)GlcNAc(b1-6)]Man(a1-6)[GlcNAc(b1-3)Gal(b1-4)GlcNAc(b1-2)Man(a1-3)]Man(b1-4)GlcNAc(b1-4)GlcNAc
# Summary of the method: as §1
# [9] = target: GlcNAc(b1-3)Gal(b1-4)GlcNAc(b1-3)Gal(b1-4)GlcNAc
# Summary of the method: as §1
# [10] = target: GlcNAc(b1-3)Gal(b1-4)GlcNAc(b1-3)Gal(b1-4)GlcNAc(b1-2)Man(a1-3)[GlcNAc(b1-3)Gal(b1-4)GlcNAc(b1-3)Gal(b1-4)GlcNAc(b1-2)Man(a1-6)]Man(b1-4)GlcNAc(b1-4)GlcNAc
# Summary of the method: as §1
# [11] = target: GlcNAc(b1-3)Gal(b1-4)GlcNAc(b1-3)Gal(b1-4)GlcNAc(b1-2)Man(a1-3)[GlcNAc(b1-3)Gal(b1-4)GlcNAc(b1-3)Gal(b1-4)GlcNAc(b1-2)Man(a1-6)]Man(b1-4)GlcNAc(b1-4)[Fuc(a1-6)]GlcNAc
# Summary of the method: as §1
# [12] = target: GlcNAc(b1-3)Gal(b1-4)GlcNAc(b1-3)Gal(b1-4)GlcNAc(b1-2)[GlcNAc(b1-3)Gal(b1-4)GlcNAc(b1-3)Gal(b1-4)GlcNAc(b1-6)]Man(a1-6)[GlcNAc(b1-3)Gal(b1-4)GlcNAc(b1-3)Gal(b1-4)GlcNAc(b1-2)Man(a1-3)]Man(b1-4)GlcNAc(b1-4)[Fuc(a1-6)]GlcNAc
# Summary of the method: as §1
# [13] = target: GlcNAc(b1-3)Gal(b1-4)GlcNAc(b1-3)Gal(b1-4)GlcNAc(b1-3)Gal(b1-4)GlcNAc(b1-2)Man(a1-3)[GlcNAc(b1-3)Gal(b1-4)GlcNAc(b1-3)Gal(b1-4)GlcNAc(b1-3)Gal(b1-4)GlcNAc(b1-2)Man(a1-6)]Man(b1-4)GlcNAc(b1-4)GlcNAc
# Summary of the method: as §1
# [14] = target: GlcNAc(b1-3)Gal(b1-4)GlcNAc(b1-3)Gal(b1-4)GlcNAc(b1-3)Gal(b1-4)GlcNAc(b1-2)Man(a1-3)[GlcNAc(b1-3)Gal(b1-4)GlcNAc(b1-3)Gal(b1-4)GlcNAc(b1-3)Gal(b1-4)GlcNAc(b1-2)Man(a1-6)]Man(b1-4)GlcNAc(b1-4)[Fuc(a1-6)]GlcNAc
# Summary of the method: as §1
# [15] = target: GlcNAc(b1-3)Gal(b1-4)GlcNAc(b1-3)Gal(b1-4)GlcNAc(b1-3)Gal(b1-4)GlcNAc(b1-2)[GlcNAc(b1-3)Gal(b1-4)GlcNAc(b1-3)Gal(b1-4)GlcNAc(b1-3)Gal(b1-4)GlcNAc(b1-6)]Man(a1-6)[GlcNAc(b1-3)Gal(b1-4)GlcNAc(b1-3)Gal(b1-4)GlcNAc(b1-3)Gal(b1-4)GlcNAc(b1-2)Man(a1-3)]Man(b1-4)GlcNAc(b1-4)[Fuc(a1-6)]GlcNAc
# Summary of the method: as §1
# [16] = target: GlcNAc(b1-3)Gal(b1-4)GlcNAc(b1-3)Gal(b1-4)GlcNAc(b1-3)Gal(b1-4)GlcNAc(b1-3)Gal(b1-4)GlcNAc(b1-2)Man(a1-3)[GlcNAc(b1-3)Gal(b1-4)GlcNAc(b1-3)Gal(b1-4)GlcNAc(b1-3)Gal(b1-4)GlcNAc(b1-3)Gal(b1-4)GlcNAc(b1-2)Man(a1-6)]Man(b1-4)GlcNAc(b1-4)GlcNAc
# Summary of the method: as §1
# [17] = target: GlcNAc(b1-3)Gal(b1-4)GlcNAc(b1-3)Gal(b1-4)GlcNAc(b1-3)Gal(b1-4)GlcNAc(b1-3)Gal(b1-4)GlcNAc(b1-2)Man(a1-3)[GlcNAc(b1-3)Gal(b1-4)GlcNAc(b1-3)Gal(b1-4)GlcNAc(b1-3)Gal(b1-4)GlcNAc(b1-3)Gal(b1-4)GlcNAc(b1-2)Man(a1-6)]Man(b1-4)GlcNAc(b1-4)[Fuc(a1-6)]GlcNAc
# Summary of the method: as §1
# [18] = target: GlcNAc(b1-3)Gal(b1-4)GlcNAc(b1-3)Gal(b1-4)GlcNAc(b1-3)Gal(b1-4)GlcNAc(b1-3)Gal(b1-4)GlcNAc(b1-2)[GlcNAc(b1-3)Gal(b1-4)GlcNAc(b1-3)Gal(b1-4)GlcNAc(b1-3)Gal(b1-4)GlcNAc(b1-3)Gal(b1-4)GlcNAc(b1-6)]Man(a1-6)[GlcNAc(b1-3)Gal(b1-4)GlcNAc(b1-3)Gal(b1-4)GlcNAc(b1-3)Gal(b1-4)GlcNAc(b1-3)Gal(b1-4)GlcNAc(b1-2)Man(a1-3)]Man(b1-4)GlcNAc(b1-4)[Fuc(a1-6)]GlcNAc
# Summary of the method: as §1
# [19] = target: GlcNAc(b1-3)Gal(b1-4)GlcNAc(b1-3)Gal(b1-4)GlcNAc(b1-3)GalNAc
# Summary of the method: as §1
# [20] = target: GlcNAc(b1-3)Gal(b1-4)GlcNAc(b1-3)GalNAc
# Summary of the method: as §1
# [21] = target: GlcNAc(b1-3)Gal(b1-4)GlcNAc(b1-3)[GlcNAc(b1-3)Gal(b1-4)GlcNAc(b1-3)]GalNAc
# Summary of the method: as §1
# [22] = target: GlcNAc(b1-3)Gal(b1-4)GlcNAc(b1-6)[Gal(b1-3)]GalNAc
# Summary of the method: as §1
# [23] = target: GlcNAc(b1-3)Gal(b1-4)GlcNAc(b1-6)[GlcNAc(b1-3)Gal(b1-3)]GalNAc
# Summary of the method: as §1
# [24] = target: GlcNAc(b1-3)Gal(b1-4)GlcNAc(b1-6)[GlcNAc(b1-3)]Gal(b1-4)GlcNAc
# Summary of the method: as §1
# GlcNAc(b1-3)GalNAc = target: GlcNAc(b1-3)GalNAc
# Summary of the method: as §1
# GlcNAc(b1-3)Man = target: GlcNAc(b1-3)Man
# Summary of the method: as §1
# [25] = target: GlcNAc(b1-3)[GlcNAc(b1-4)][GlcNAc(b1-6)]GlcNAc
# Summary of the method: as §1
# [26] = target: GlcNAc(b1-3)[GlcNAc(b1-6)]Gal(b1-4)GlcNAc
# Summary of the method: as §1
# [27] = target: GlcNAc(b1-3)[GlcNAc(b1-6)]GalNAc
# Summary of the method: as §1
# [28] = target: GlcNAc(b1-4)Gal(b1-4)GlcNAc
# Summary of the method: as §1
# GlcNAc(b1-4)GlcNAc = target: GlcNAc(b1-4)GlcNAc
# Summary of the method: as §1
# [29] = target: GlcNAc(b1-4)GlcNAc(b1-4)GlcNAc
# Summary of the method: as §1
# [30] = target: GlcNAc(b1-4)GlcNAc(b1-4)GlcNAc(b1-4)GlcNAc(b1-4)GlcNAc
# Summary of the method: as §1
# [31] = target: GlcNAc(b1-4)GlcNAc(b1-4)GlcNAc(b1-4)GlcNAc(b1-4)GlcNAc(b1-4)GlcNAc
# Summary of the method: as §1
# [32] = target: GlcNAc(b1-4)[GlcNAc(b1-6)]GalNAc
# Summary of the method: as §1
# [33] = target: GlcNAc(b1-6)Gal(b1-4)GlcNAc
# Summary of the method: as §1
# GlcNAc(b1-6)GalNAc = target: GlcNAc(b1-6)GalNAc
# Summary of the method: as §1
# GlcNAc3Prop(b1-4)GlcNAc = target: GlcNAc3Prop(b1-4)GlcNAc
# Summary of the method: as §1
# [34] = target: GlcNAc6S(b1-3)Gal(b1-4)GlcNAc
# Summary of the method: as §1
# Kdn(a2-3)Gal(b1-3)GalNAc = target: Kdn(a2-3)Gal(b1-3)GalNAc
# Summary of the method: as §1
# Kdn(a2-3)Gal(b1-3)GlcNAc = target: Kdn(a2-3)Gal(b1-3)GlcNAc
# Summary of the method: as §1
# Kdn(a2-3)Gal(b1-4)Glc = target: Kdn(a2-3)Gal(b1-4)Glc
# Summary of the method: as §1
binder,measurement,setting,value
GST Gap3 (Streptococcus parasanguinis) (protein) MTKQLISEIYWNEIRKGENYLYGSQIKFQEDLVNFYNPQLASGKPIVTFKSRTNYQGDRHSPDLPILIQGNRYLLEYQIDAVPANSFFLQLDFFNRQAEQIESIVLRNSGESFIFPKDTFTYTLTLMSAGCQSVTYQKFMIYDINDEEKKNHIVENRYLRELLPKDLDLVKNLIEYI,glycan array binding signal (z-score),[1],-0.083
same,glycan array binding signal (z-score),[2],-0.755
same,glycan array binding signal (z-score),[3],-0.185
same,glycan array binding signal (z-score),GlcNAc(b1-3)Fuc,-0.621
same,glycan array binding signal (z-score),GlcNAc(b1-3)Gal,-0.281
same,glycan array binding signal (z-score),[4],-0.218
same,glycan array binding signal (z-score),GlcNAc(b1-3)Gal(b1-4)Glc,-0.644
same,glycan array binding signal (z-score),[5],-0.32
same,glycan array binding signal (z-score),[6],0.029
same,glycan array binding signal (z-score),[7],-0.386
same,glycan array binding signal (z-score),[8],3.45
same,glycan array binding signal (z-score),[9],-0.278
same,glycan array binding signal (z-score),[10],1.64
same,glycan array binding signal (z-score),[11],0.269
same,glycan array binding signal (z-score),[12],1.25
same,glycan array binding signal (z-score),[13],-0.253
same,glycan array binding signal (z-score),[14],0.692
same,glycan array binding signal (z-score),[15],0.345
same,glycan array binding signal (z-score),[16],-0.337
same,glycan array binding signal (z-score),[17],-0.584
same,glycan array binding signal (z-score),[18],-0.202
same,glycan array binding signal (z-score),[19],-0.068
same,glycan array binding signal (z-score),[20],-0.509
same,glycan array binding signal (z-score),[21],-0.518
same,glycan array binding signal (z-score),[22],-0.4
same,glycan array binding signal (z-score),[23],-0.43
same,glycan array binding signal (z-score),[24],-0.627
same,glycan array binding signal (z-score),GlcNAc(b1-3)GalNAc,-0.283
same,glycan array binding signal (z-score),GlcNAc(b1-3)Man,-0.109
same,glycan array binding signal (z-score),[25],-0.104
same,glycan array binding signal (z-score),[26],-0.323
same,glycan array binding signal (z-score),[27],-0.116
same,glycan array binding signal (z-score),[28],-0.278
same,glycan array binding signal (z-score),GlcNAc(b1-4)GlcNAc,-0.128
same,glycan array binding signal (z-score),[29],-0.159
same,glycan array binding signal (z-score),[30],-0.541
same,glycan array binding signal (z-score),[31],-0.424
same,glycan array binding signal (z-score),[32],-0.727
same,glycan array binding signal (z-score),[33],-0.329
same,glycan array binding signal (z-score),GlcNAc(b1-6)GalNAc,-0.168
same,glycan array binding signal (z-score),GlcNAc3Prop(b1-4)GlcNAc,-0.011
same,glycan array binding signal (z-score),[34],-0.145
same,glycan array binding signal (z-score),Kdn(a2-3)Gal(b1-3)GalNAc,-0.382
same,glycan array binding signal (z-score),Kdn(a2-3)Gal(b1-3)GlcNAc,-0.25
same,glycan array binding signal (z-score),Kdn(a2-3)Gal(b1-4)Glc,-0.311

# Laid out differently: entries from further up.
binder	measurement	setting	value
GST Gap3 (Streptococcus parasanguinis) (protein) MTKQLISEIYWNEIRKGENYLYGSQIKFQEDLVNFYNPQLASGKPIVTFKSRTNYQGDRHSPDLPILIQGNRYLLEYQIDAVPANSFFLQLDFFNRQAEQIESIVLRNSGESFIFPKDTFTYTLTLMSAGCQSVTYQKFMIYDINDEEKKNHIVENRYLRELLPKDLDLVKNLIEYI	glycan array binding signal (z-score)	GlcNAc(b1-3)Gal(b1-4)Glc	-0.644
same	glycan array binding signal (z-score)	[5]	-0.32
